Experiments:
Experiment in all cases: minimum inhibitory concentration
fidaxomicin = compound: CCc1c(Cl)c(O)c(Cl)c(O)c1C(=O)O[C@H]1[C@H](O)[C@H](OC)[C@H](OC/C2=C\C=C\C[C@H](O)/C(C)=C/[C@H](CC)[C@@H](O[C@@H]3OC(C)(C)[C@@H](OC(=O)C(C)C)[C@H](O)[C@@H]3O)/C(C)=C/C(C)=C/C[C@@H]([C@@H](C)O)OC2=O)O[C@@H]1C [fidaxomicin]
linezolid = compound: CC(=O)NC[C@H]1CN(c2ccc(N3CCOCC3)c(F)c2)C(=O)O1 [linezolid]
rifampicin = compound: CO[C@H]1/C=C/O[C@@]2(C)Oc3c(C)c(O)c4c(O)c(c(/C=N/N5CCN(C)CC5)c(O)c4c3C2=O)NC(=O)/C(C)=C\C=C\[C@H](C)[C@H](O)[C@@H](C)[C@@H](O)[C@@H](C)[C@H](OC(C)=O)[C@@H]1C [rifampicin]
imipenem = compound: C[C@@H](O)[C@H]1C(=O)N2C(C(=O)O)=C(SCCNC=N)C[C@H]12 [imipenem]
tigecycline = compound: CN(C)c1cc(NC(=O)CNC(C)(C)C)c(O)c2c1C[C@H]1C[C@H]3[C@H](N(C)C)C(O)=C(C(N)=O)C(=O)[C@@]3(O)C(O)=C1C2=O [tigecycline]
clindamycin = compound: CCC[C@@H]1C[C@@H](C(=O)N[C@@H]([C@H]2O[C@H](SC)[C@H](O)[C@@H](O)[C@H]2O)[C@H](C)Cl)N(C)C1 [clindamycin]
meropenem = compound: C[C@@H](O)[C@H]1C(=O)N2C(C(=O)O)=C(S[C@@H]3CN[C@H](C(=O)N(C)C)C3)[C@H](C)[C@H]12 [meropenem]
metronidazole = compound: Cc1ncc([N+](=O)[O-])n1CCO [metronidazole]
vancomycin = compound: CN[C@H](CC(C)C)C(=O)N[C@H]1C(=O)N[C@@H](CC(N)=O)C(=O)N[C@H]2C(=O)N[C@H]3C(=O)N[C@H](C(=O)N[C@H](C(=O)O)c4cc(O)cc(O)c4-c4cc3ccc4O)[C@H](O)c3ccc(c(Cl)c3)Oc3cc2cc(c3O[C@@H]2O[C@H](CO)[C@@H](O)[C@H](O)[C@H]2O[C@H]2C[C@](C)(N)[C@H](O)[C@H](C)O2)Oc2ccc(cc2Cl)[C@H]1O [vancomycin]

Test System | minimum inhibitory concentration (fidaxomicin) [µg/mL] | minimum inhibitory concentration (linezolid) [µg/mL] | minimum inhibitory concentration (rifampicin) [µg/mL] | minimum inhibitory concentration (imipenem) [µg/mL] | minimum inhibitory concentration (tigecycline) [µg/mL] | minimum inhibitory concentration (clindamycin) [µg/mL] | minimum inhibitory concentration (meropenem) [µg/mL] | minimum inhibitory concentration (metronidazole) [µg/mL] | minimum inhibitory concentration (vancomycin) [µg/mL]
Clostridioides difficile PCR ribotype 003 isolate #28 (European region: South, country: Italy, isolate source: Human, ribotype: 003) | 0.06 | 2 | < 0.001 | 4 | 0.125 | 8 | 2 | 0.25 | 
Clostridioides difficile PCR ribotype 005 isolate #35 (European region: East, country: Poland, isolate source: Human, ribotype: 005) | 0.06 | 2 | < 0.001 | 2 | < 0.03 | 8 | 2 | 1 | 
Clostridioides difficile PCR ribotype 009 isolate #39 (European region: South, country: Italy, isolate source: Human, ribotype: 009) | 0.06 | 2 | < 0.001 | 1 | < 0.03 | 16 |  | < 0.125 | 0.5
Clostridioides difficile PCR ribotype 010 isolate #46 (European region: South, country: Spain, isolate source: Human, ribotype: 010) |  | 2 | 0.002 | 4 | < 0.03 | 8 | 4 | 0.25 | 0.5
Clostridioides difficile PCR ribotype 010 isolate #53 (European region: West, country: Netherlands, isolate source: Human, ribotype: 010) | 0.06 | 2 | < 0.001 | 2 | 0.125 | 0.5 | 2 | 0.25 | 
Clostridioides difficile PCR ribotype 010 isolate #54 (European region: South, country: Italy, isolate source: Human, ribotype: 010) | 0.125 | 1 | < 0.001 | 2 | < 0.03 | < 0.125 | 2 | 0.25 | 
Clostridioides difficile PCR ribotype 014 isolate #69 (European region: South, country: Italy, isolate source: Human, ribotype: 014) | 0.125 | 2 | < 0.001 | 2 | < 0.03 | 16 | 2 | 0.25 | 
Clostridioides difficile PCR ribotype 014 isolate #72 (European region: South, country: Italy, isolate source: Human, ribotype: 014) | 0.015 | 2 | < 0.001 | 2 | < 0.03 | 16 | 2 | < 0.125 | 
Clostridioides difficile PCR ribotype 014 isolate #77 (European region: South, country: Italy, isolate source: Human, ribotype: 014) | 0.015 | 2 | < 0.001 | 2 | 0.125 | 16 |  | 0.25 | 0.5
Clostridioides difficile PCR ribotype 014 isolate #78 (European region: West, country: Belgium, isolate source: Human, ribotype: 014) | 0.015 | 2 | < 0.001 | 1 | 0.125 | 0.5 | 2 | < 0.125 | 
Clostridioides difficile PCR ribotype 018 isolate #91 (European region: South, country: Italy, isolate source: Human, ribotype: 018) | 0.03 | 2 | > 32 | 4 | < 0.03 | 8 | 4 | 0.25 | 
Clostridioides difficile PCR ribotype 018 isolate #92 (European region: South, country: Italy, isolate source: Human, ribotype: 018) | 0.06 | 2 | < 0.001 | 4 | < 0.03 | 16 | 4 | < 0.125 | 
Clostridioides difficile PCR ribotype 027 isolate #118 (European region: South, country: Italy, isolate source: Human, ribotype: 027) |  | < 0.125 | > 32 | 2 | 0.125 | 0.25 | 2 | 1 | 1

Taken from above.
minimum inhibitory concentration (linezolid) [µg/mL] with Clostridioides difficile PCR ribotype 010 isolate #54 (European region: South, country: Italy, isolate source: Human, ribotype: 010) is entered as 1
minimum inhibitory concentration (linezolid) [µg/mL] with Clostridioides difficile PCR ribotype 014 isolate #77 (European region: South, country: Italy, isolate source: Human, ribotype: 014) is entered as 2
